Over roughly 3,200 compounds, “TSA(with NAD+) / Primary screening (TSA) / delta Tm (K)” has its median near -0.04; the highest 2% begin near 0.37. The list shows a part of the results.

Amino acid sequences for entries named in this document (tags omitted). Residues count along the entry.
UniProt Q96EB6, 2-747 limits assumed: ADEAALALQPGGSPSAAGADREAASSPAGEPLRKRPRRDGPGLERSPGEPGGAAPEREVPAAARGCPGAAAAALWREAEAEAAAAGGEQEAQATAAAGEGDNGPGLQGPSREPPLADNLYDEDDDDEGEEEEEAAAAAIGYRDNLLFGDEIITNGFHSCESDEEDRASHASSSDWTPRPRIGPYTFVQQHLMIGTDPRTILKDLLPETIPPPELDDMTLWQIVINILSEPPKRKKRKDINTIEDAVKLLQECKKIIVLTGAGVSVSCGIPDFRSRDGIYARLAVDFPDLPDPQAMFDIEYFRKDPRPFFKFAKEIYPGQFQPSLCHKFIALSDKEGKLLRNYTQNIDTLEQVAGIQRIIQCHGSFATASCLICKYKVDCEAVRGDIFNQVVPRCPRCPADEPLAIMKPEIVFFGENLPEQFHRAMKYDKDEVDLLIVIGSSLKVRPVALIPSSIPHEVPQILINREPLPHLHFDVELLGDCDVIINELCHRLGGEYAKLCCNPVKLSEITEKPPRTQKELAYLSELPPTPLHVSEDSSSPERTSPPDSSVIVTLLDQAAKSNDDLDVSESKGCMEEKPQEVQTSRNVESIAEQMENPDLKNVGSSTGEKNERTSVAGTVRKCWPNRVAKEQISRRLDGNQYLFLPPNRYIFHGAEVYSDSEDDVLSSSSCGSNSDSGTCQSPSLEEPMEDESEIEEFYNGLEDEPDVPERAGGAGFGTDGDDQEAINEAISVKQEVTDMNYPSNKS

This assay addresses NAD-dependent deacetylase Sirtuin 1 (human, UniProt Q96EB6). Put plainly: primary screen, delta tm. Details: single well (n = 1, as 'the same TSA'). As to conditions: 10 µM.
Regarding `CC#CCN`, the “TSA(with NAD+) / Primary screening (TSA) / delta Tm (K)” value is listed as -0.03 K.

Consider `Cc1nc2cc(NC(=O)C3Cc4ccccc4O3)ccc2o1` (stereo not shown), for which the “TSA(with NAD+) / Primary screening (TSA) / delta Tm (K)” value is reported as -0.12 K.

`CCn1c(C(=O)Nc2ccc(CCO)cc2)cc2ccccc21`: the “TSA(with NAD+) / Primary screening (TSA) / delta Tm (K)” value is -0.03 K.

As for `NC(=O)CN1CCOc2cc(Br)c(Cl)cc21`, the “TSA(with NAD+) / Primary screening (TSA) / delta Tm (K)” value is recorded as -0.13 K.

As to `CN1C(=O)N(CC(=O)c2ccc3c(c2)CCCC3)C(=O)C12CCCCC2`, the “TSA(with NAD+) / Primary screening (TSA) / delta Tm (K)” value was -0.11 K.

Turning to `CCn1c(=O)c(C)nc2cc(C(=O)NCC(C(C)C)N(C)C)ccc21` (stereo not shown), the “TSA(with NAD+) / Primary screening (TSA) / delta Tm (K)” value is -0.08 K.

As for `O=C(CN1C(=O)COc2ccccc21)Nc1cccc(S(=O)(=O)NCc2ccco2)c1`, the “TSA(with NAD+) / Primary screening (TSA) / delta Tm (K)” value is -0.09 K.

Regarding `CC(C)c1ccc(-c2nnc(NC(=O)/C=C/c3ccco3)s2)cc1`, the “TSA(with NAD+) / Primary screening (TSA) / delta Tm (K)” value was -0.06 K.

On to `O=C1NC(=S)NC(=O)C1=Cc1ccc(N2CCOCC2)cc1`, for which the “TSA(with NAD+) / Primary screening (TSA) / delta Tm (K)” value was -0.11 K.

`O=C(Nc1cnc2ccccc2c1)C(=O)N1CCCC1c1ccsc1` (stereo not shown): the “TSA(with NAD+) / Primary screening (TSA) / delta Tm (K)” value was -0.16 K.

With `O=C(c1ccc2c(=O)[nH]c(S)nc2c1)N1CCN(C(=O)c2cnccn2)CC1`, the “TSA(with NAD+) / Primary screening (TSA) / delta Tm (K)” value came out at 0.06 K.

In the case of `COc1ccc(N(C)S(=O)(=O)c2cccc(C(=O)Nc3ccc(Cl)cc3)c2)cc1`, the “TSA(with NAD+) / Primary screening (TSA) / delta Tm (K)” value is on record as 0.86 K.

Take `NS(=O)(=O)c1ccc(CCNC(=O)COC(=O)C23CC4CC(C2)CC(c2ccccc2)(C4)C3)cc1`: the “TSA(with NAD+) / Primary screening (TSA) / delta Tm (K)” value was determined as 0.08 K.

As for `O=C(NCc1cccc(OCc2ccccn2)c1)Nc1ccc(C(=O)N2CCCCCC2)cc1`, the “TSA(with NAD+) / Primary screening (TSA) / delta Tm (K)” value was -0.03 K.

As to `O=C(CN1CCN(Cc2ccsc2)CC1)Nc1ccc(N2CCCC2=O)cc1`, the “TSA(with NAD+) / Primary screening (TSA) / delta Tm (K)” value is given as 0.03 K.

In the case of `NC(=O)C1CCCN(c2ncnc3ccsc23)C1` (stereo not shown), the “TSA(with NAD+) / Primary screening (TSA) / delta Tm (K)” value is recorded as -0.01 K.

With `Cc1ccccc1C(=O)N1CCC(C(=O)Nc2ccc(N3CCN(Cc4ccccc4)CC3)cc2)CC1`, the “TSA(with NAD+) / Primary screening (TSA) / delta Tm (K)” value is -0.01 K.

Regarding `NC(=O)c1ccc(OCC(=O)NC(=O)NCc2cccs2)cc1`, the “TSA(with NAD+) / Primary screening (TSA) / delta Tm (K)” value is -0.02 K.

`COc1ccc2cc(C(=O)N(C)CC(=O)O)c(C)nc2c1`: the “TSA(with NAD+) / Primary screening (TSA) / delta Tm (K)” value was -0.15 K.

On to `CC1(c2ccc(C#N)cc2)NC(=O)N(CC(=O)Nc2ccc(C(N)=O)cc2)C1=O` (stereo not shown), for which the “TSA(with NAD+) / Primary screening (TSA) / delta Tm (K)” value is recorded as -0.13 K.

As to `COc1cccc(C(=O)C2=C(O)C(=O)N(CCCN3CCOCC3)C2c2cccs2)c1` (stereo not shown), the “TSA(with NAD+) / Primary screening (TSA) / delta Tm (K)” value is reported as -0.01 K.

Regarding `O=C(CSC1=N/C(=C\c2ccccc2)C(=O)N1c1ccc(F)cc1)c1c[nH]c2ccccc12`, the “TSA(with NAD+) / Primary screening (TSA) / delta Tm (K)” value is given as -0.08 K.

Consider `COC(=O)CCC(=O)NNC(=O)CCC(=O)Nc1ccc(C)c(C)c1`, for which the “TSA(with NAD+) / Primary screening (TSA) / delta Tm (K)” value is reported as -0.16 K.

As to `Cc1ccc(C(=O)C(OC(=O)c2c(C)noc2C)c2ccc(C)cc2)cc1` (stereo not shown), the “TSA(with NAD+) / Primary screening (TSA) / delta Tm (K)” value is recorded as -0.26 K.

With `NC(=O)c1ccc(NC(=O)c2ccccc2S(=O)(=O)N2CCCCC2)cc1`, the “TSA(with NAD+) / Primary screening (TSA) / delta Tm (K)” value was -0.01 K.

Consider `Cc1nn(C)c2ncc(S(=O)(=O)N(C)c3ccc4ccccc4c3)cc12`, for which the “TSA(with NAD+) / Primary screening (TSA) / delta Tm (K)” value is recorded as -0.01 K.

Consider `CC(NC(=O)COC(=O)c1ccc2c(c1)S(=O)(=O)c1ccccc1C2=O)C12CC3CC(CC(C3)C1)C2` (stereo not shown), for which the “TSA(with NAD+) / Primary screening (TSA) / delta Tm (K)” value is 0.01 K.

Consider `NCc1nc2c(cnn2-c2ccccc2)c(=O)[nH]1`, for which the “TSA(with NAD+) / Primary screening (TSA) / delta Tm (K)” value is listed as -1.78 K.

With `O=C1/C(=C\c2cc(Br)cc(Br)c2O)CC/C1=C\c1cc(Br)cc(Br)c1O`, the “TSA(with NAD+) / Primary screening (TSA) / delta Tm (K)” value worked out at 0.19 K.

`O=C(NCc1ccc[nH]1)C(=O)Nc1ccc2c(c1)CCC2`: the “TSA(with NAD+) / Primary screening (TSA) / delta Tm (K)” value is -0.05 K.

In the case of `CCn1cnc2c(N3CC4CCCCCC43)ncnc21` (stereo not shown), the “TSA(with NAD+) / Primary screening (TSA) / delta Tm (K)” value is given as -0.09 K.

In the case of `Cc1ccc(NC(=O)c2ccc(Cl)nc2Cl)cc1F`, the “TSA(with NAD+) / Primary screening (TSA) / delta Tm (K)” value is listed as -0.01 K.

On to `COc1ccc(CCNC(=O)/C=C/c2ccc3ccccc3n2)cc1OC`, for which the “TSA(with NAD+) / Primary screening (TSA) / delta Tm (K)” value is -0.04 K.

On to `N=C1c2ccccc2CN1c1ccc(-c2ccc(N3Cc4ccccc4C3=N)cc2)cc1`, for which the “TSA(with NAD+) / Primary screening (TSA) / delta Tm (K)” value is given as -0.03 K.

In the case of `Cc1nnc(CN2CCN(CC(O)COCc3ccco3)CC2)n1C` (stereo not shown), the “TSA(with NAD+) / Primary screening (TSA) / delta Tm (K)” value was -0.13 K.

`CCOc1ccc(C2C(C(=O)/C=C/c3ccco3)=C(O)C(=O)N2CCCN2CCOCC2)cc1OC` (stereo not shown): the “TSA(with NAD+) / Primary screening (TSA) / delta Tm (K)” value is -0.12 K.

Regarding `NC(=O)c1ccc(N2CCCC2)c(NC(=O)c2cn(Cc3ccccc3)nn2)c1`, the “TSA(with NAD+) / Primary screening (TSA) / delta Tm (K)” value is listed as -0.05 K.

`CN1c2ccccc2C(=O)NC1c1cccc(C(F)(F)F)c1` (stereo not shown): the “TSA(with NAD+) / Primary screening (TSA) / delta Tm (K)” value is listed as -0.08 K.

For `COc1ccc2cc(C(=O)O)c(C)nc2c1`, the “TSA(with NAD+) / Primary screening (TSA) / delta Tm (K)” value is recorded as -0.22 K.

For the compound `O=C(Nc1cccc(S(=O)(=O)N2CCOCC2)c1)c1cc(-c2ccccc2)nn1-c1ccccc1`, the “TSA(with NAD+) / Primary screening (TSA) / delta Tm (K)” value is recorded as -0.04 K.

With `NC(=O)Cc1ccc(NC(=O)c2cc(Br)ccc2F)cc1`, the “TSA(with NAD+) / Primary screening (TSA) / delta Tm (K)” value is recorded as -0.04 K.

On to `COc1cccc(CN(C(=O)CN2C(=O)c3ccccc3S2(=O)=O)C23CC4CC(CC(C4)C2)C3)c1`, for which the “TSA(with NAD+) / Primary screening (TSA) / delta Tm (K)” value is on record as -0.09 K.

Regarding `O=C(O)c1cc2c(ccc3cc(Br)ccc32)oc1=O`, the “TSA(with NAD+) / Primary screening (TSA) / delta Tm (K)” value came to 0.16 K.

As for `Cc1nn(C)cc1CCN`, the “TSA(with NAD+) / Primary screening (TSA) / delta Tm (K)” value is given as -0.11 K.

Consider `NC(=O)c1csc(C(=O)N2CCC(COCc3ccccc3)C2)c1` (stereo not shown), for which the “TSA(with NAD+) / Primary screening (TSA) / delta Tm (K)” value is -0.01 K.

As for `O=C(CSc1ccccc1C(=O)OCc1cc([N+](=O)[O-])cc2c1OCOC2)NC12CC3CC(CC(C3)C1)C2`, the “TSA(with NAD+) / Primary screening (TSA) / delta Tm (K)” value turned out to be 0.15 K.

For the origin of these results see article PMC6925144, “A prospective compound screening contest identified broader inhibitors for Sirtuin 1” (Scientific Reports, 2019).
